PubChem BioAssay AID504786 – Drosophila RNAi Screening Center | 2011
Test: 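Knock-downs reducing HIF reporter induction by the iron chelator DFO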 (primary screen). Cells: Drosophila S2 cells with a stable HIF luciferase reporter. Reagents: long dsRNA against Drosophila genes, about 0.2 µg dsRNA per well of a 384-well plate. Time to read-out: three days of knock-down, then 20 h of DFO before reading. Treatment: desferrioxamine (DFO) at 100 µM, an iron chelator that mimics hypoxia, for 20 h. Detection: 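Firefly luciferase driven by the mouse ldh-a hypoxia-response element, measured after 20 h of 100 µM DFO; z-scores per plate, higher means more signal lost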. Reading the numbers: z-score: higher = stronger loss of HIF reporter signal.
The deposit covers about 21,000 reagents; this is an unselected part of those with a known target gene and a result. 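Primary screen; positive scores mean lost reporter signal, so the sign may be inverted from the usual convention.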 Reagents against one gene are numbered here. Further read-outs or replicates are left out here. Reagent sequences are not shown.

CG1092: z-score, replicate 1 = -0.3
robo2 #1: z-score, replicate 1 = -0.2
robo2 #2: z-score, replicate 1 = -0.2
robo2 #3: z-score, replicate 1 = -0.2
robo2 #4: z-score, replicate 1 = -0.1
ATPsynCF6: z-score, replicate 1 = 1.5
CG34296: z-score, replicate 1 = 0
lky: z-score, replicate 1 = -0.2
CG17059: z-score, replicate 1 = -0.5
Cpr23B: z-score, replicate 1 = -0.1
CG13585: z-score, replicate 1 = -0.3
CG12420: z-score, replicate 1 = -0.3
Cpr51A: z-score, replicate 1 = -0.2
SP: z-score, replicate 1 = -0.2
CG46385 #1: z-score, replicate 1 = 1
CG46385 #2: z-score, replicate 1 = -0.3
Fbxl7: z-score, replicate 1 = -0.4
CG13613: z-score, replicate 1 = -0.4
CG6321: z-score, replicate 1 = -0.4
CG13689: z-score, replicate 1 = -0.3
Tao #1: z-score, replicate 1 = -0.2
Tao #2: z-score, replicate 1 = -0.5
Pdi: z-score, replicate 1 = -0.2
CR31822: z-score, replicate 1 = -0.5
CG13667: z-score, replicate 1 = -0.1
Cp38: z-score, replicate 1 = -0.3

Continued, starting with the last 4 of the part before.
Pdi: z-score, replicate 1 = -0.2
CR31822: z-score, replicate 1 = -0.5
CG13667: z-score, replicate 1 = -0.1
Cp38: z-score, replicate 1 = -0.3
CG14220: z-score, replicate 1 = -0.3
ppk20: z-score, replicate 1 = -0.4
mip130: z-score, replicate 1 = 0.2
CG31538: z-score, replicate 1 = -0.3
ND-20L: z-score, replicate 1 = -0.4
CG9636: z-score, replicate 1 = -0.4
CG13813: z-score, replicate 1 = -0.2
phu: z-score, replicate 1 = -0.1
Golgin104: z-score, replicate 1 = -0.2
CG4194: z-score, replicate 1 = -0.2
Lnk: z-score, replicate 1 = -0.3
CG5080: z-score, replicate 1 = -0.2
Culd: z-score, replicate 1 = -0.3
CG13841: z-score, replicate 1 = 1.5
